According to the supplement of paper PMC8858631:
The list shows a part of the results. No stated cut-off is given here; in the data, active = 0.5 or less and inactive = the rest. Most values come without repeats; read them as rough.

What follows are compounds tested on SK-MEL-28 (assay: EEF2K protein level normalised to actin (western blot) after treatment (ratio (EEF2K/Actin)); higher = more EEF2K protein remaining (less EEF2K suppression)). Conditions: 5 µM; 24 h.
With `O=C(O)CCCc1ccc(N(CCCl)CCCl)cc1` [Chloroambucil] the “EEF2K protein level normalised to actin” value was inactive: 1.81.
With `N[C@@H](Cc1ccc(N(CCCl)CCCl)cc1)C(=O)O` [Melphalan] the “EEF2K protein level normalised to actin” value was inactive: 1.37.
In the case of `Cn1c(CCCC(=O)O)nc2cc(N(CCCl)CCCl)ccc21` [Bendamustine], the “EEF2K protein level normalised to actin” value is reported as inactive: 1.76.
`Cn1cc(C2=C(c3cn(C4CCN(Cc5ccccn5)CC4)c4ccccc34)C(=O)NC2=O)c2ccccc21` was tested, and the “EEF2K protein level normalised to actin” value was inactive: 1.96.
In the case of `C=CCN1C[C@H](C(=O)N(CCCN(C)C)C(=O)NCC)C[C@@H]2c3cccc4[nH]cc(c34)C[C@H]21` [Cabergoline], the “EEF2K protein level normalised to actin” value is reported as inactive: 2.21.
In the case of `C[C@]12CC[C@@H]3c4ccc(OC(=O)N(CCCl)CCCl)cc4CC[C@H]3[C@@H]1CC[C@@H]2OP(=O)(O)O` [Estramustine phosphate sodium], the “EEF2K protein level normalised to actin” value is reported as inactive: 1.12.
With `CC(C)[C@]12O[C@H]1[C@@H]1O[C@@]13[C@@]1(C)CCC4=C(COC4=O)[C@@H]1C[C@@H]1O[C@@]13C2=O` [Triptonide] the “EEF2K protein level normalised to actin” value was inactive: 2.35.
With `CC[C@@]1(O)C(=O)OCc2c1cc1n(c2=O)Cc2cc3ccccc3nc2-1` [Camptothecin] the “EEF2K protein level normalised to actin” value was active: 0.31.
`O=P1(N(CCCl)CCCl)NCCCO1` (configuration not stated) [Cyclophosphamide Monohydrate] was tested, and the “EEF2K protein level normalised to actin” value was inactive: 3.17.
`O=C(O)C1C2CCC(O2)C1C(=O)O` (configuration not stated) [Sodium Demethylcantharidate] was tested, and the “EEF2K protein level normalised to actin” value was inactive: 0.61.
In the case of `O=C(O)c1nn(Cc2ccc(Cl)cc2Cl)c2ccccc12` [Lonidamine], the “EEF2K protein level normalised to actin” value is reported as inactive: 1.88.
With `C[C@]12CCC(=O)C(O)=C1CC[C@@H]1[C@@H]2CC[C@]2(C)C(=O)CC[C@@H]12` [Formestane] the “EEF2K protein level normalised to actin” value was inactive: 1.
